From patent US20100210713A1, “REGENERATION AND SURVIVAL OF CARDIAC PROGENITORS AND CARDIOMYOCYTES WITH A STRETCH ACTIVATED TRANSCRIPTION FACTOR” (THE GENERAL HOSPITAL CORPORATION, priority 2009, published 2010)
Some of these results come from one statement about several compounds together.

System: Creb312
Test: Proteolytic cleavage of HA-tagged full-length Creb312 to the nuclear form in NRVM after chemical ER stressors or hypertrophic agonists (Western Blot, anti-HA)
Format: cell-based, rat
Details: NRVM expressing HA-Creb312(FL); ER stress-inducing chemicals; FIG. 4B
Experimental: Isolation of neonatal rat ventricular cardiomyocytes. All procedures described below were conducted according to the guidelines of the Harvard University Animal Care and Use Committee. Ventricular myocytes were isolated from 2 day-old Sprague Dawley rats as briefly described. Excised ventricular tissue was agitated in a 0.1% trypsin solution cooled to 4° C. for approximately 14 hours. Trypsinized ventricles were dissociated into their cellular constituents via serial exposure to a 0.1% solution of collagenase type II at 37° C. for 2 minutes. The myocyte portion of the cell population was enriched by passing the dissociated cell solution through a nylon mesh with 40 μm pores, and then pre-plating twice for 45 minutes each time. 10^6 isolated myocytes were seeded onto silicon membranes coated with fibronectin in culture medium consisting of M199 base supplemented with 10% heat-inactivated Fetal Bovine Serum, 10 mM HEPES, 20 mM glucose, 2 mM L-glutamine, 1.5 ? M vitamin B-12, and 50 U/ml penicillin. […]
Adenovirus preparation and infection. […] The recombinant adenoviruses were concentrated and purified by CsCl gradient ultracentrifugation, and the virus titer was determined through plaque assay. […]
Immunoprecipitation and Immunoblot. […] Protein concentrations were determined with the Protein Assay Dye Reagent (Bio-Rad). […]

Q: How did the “time to formation of the proteolytically cleaved, nuclear form of Creb312” value turn out when tunicamycin was run?
A: ≤ 1 h
